# Test: Aqueous solubility of the compound
# Conditions: buffer
compound,measurement,value
CCOc1cc2nnc(C(N)=O)c(Nc3ccc(F)cc3F)c2cc1N1CCN(C)CC1,solubility,8 µM

# Reference: ChEMBL document CHEMBL1681665, “3-amido-4-anilinocinnolines as a novel class of CSF-1R inhibitor” (Bioorg Med Chem Lett, 2011)
